The text below walks through data of US20110086042A1.

Results are given in words; binding and its absence hold for the method and conditions named. A result given as binding can be weak or reduced; the word gives no strength.

This assay concerns the target α-tubulin. As to the kind of experiment: co-localisation in rod-like structures of cells that overexpress full-length centrobin.

B1: centrobin α (full-length, 903 amino acids) (protein)
chain: MATSADSPSSPLGAEDLLSDSSEPPGLNQVSSEVTSQLYASLRLSRQAEATARAQLYLPSTSPPHEGLDGFAQELSRSLSVGLEKNLKKKDGSKHIFEMESVRGQLQTMLQTSRDTAYRDPLIPGAGSERREEDSFDSDSTATLLNTRPLQDLSPSSSAQALEELFPRYTSLRPGPPLNPPDFQGLRDALDSEHTRRKHCERHIQSLQTRVLELQQQLAVAVAADRKKDTMIEQLDKTLARVVEGWNRHEAERTEVLRGLQEEHQAAELTRSKQQETVTRLEQSLSEAMEALNREQESARLQQRERETLEEERQALTLRLEAEQQRCCVLQEERDAARAGQLSEHRELETLRAALEEERQTWAQQEHQLKEHYQALQEESQAQLEREKEKSQREAQAAWETQHQLALVQSEVRRLEGELDTARRERDALQLEMSLVQARYESQRIQLESELAVQLEQRVTERLAQAQESSLRQAASLREHHRKQLQDLSGQHQQELASQLAQFKVEMAEREERQQQVAEDYELRLAREQARVCELQSGNQQLEEQRVELVERLQAMLQAHWDEANQLLSTTLPPPNPPAPPAGPSSPGPQEPEKEERRVWTMPPMAVALKPVLQQSREARDELPGAPPVLCSSSSDLSLLLGPSFQSQHSFQPLEPKPDLTSSTAGAFSALGAFHPDHRAERPFPEEDPGPDGEGLLKQGLPPAQLEGLKNFLHQLLETVPQNNENPSVDLLPPKSGPLTVPSWEEAPQVPRIPPPVHKTKVPLAMASSLFRVPEPPSSHSQGSGPSSGSPERGGDGLTFPRQLMEVSQLLRLYQARGWGALPAEDLLLYLKRLEHSGTDGRGDNVPRRNTDSRLGEIPRKEIPSQAVPRRLATAPKTEKPPARKKSGHPAPSSMRSRGGVWR
On to B1, for which the binding result was “binds”.
